Test results as given in paper PMC7577978, “IM30 IDPs form a membrane-protective carpet upon super-complex disassembly” (Communications Biology, 2020).
Results are given in words; binding and its absence hold for the method and conditions named.

Biological target: IM30_H2-3a (amino acids 22-145), WT fragment of Synechocystis IM30 (Synechocystis sp. PCC 6803) (UniProt Q55707)
Assay: SEC-MALS; Superdex 200 Increase 10/300 GL, 25 mM HEPES pH 7.5, 125 mM NaCl, 5% glycerol (w/w), RT; both purified

B1: IM30_H2-3a (amino acids 22-145), WT fragment of Synechocystis IM30 (domain or fragment, UniProt Q55707 22-145)
chain: AEDPEKVLEQAVIDMQEDLVQLRQAVARTIAEEKRTEQRLNQDTQEAKKWEDRAKLALTNGEENLAREALARKKSLTDTAAAYQTQLAQQRTMSENLRRNLAALEAKISEAKTKKNMLQARAKA
binding: no binding
